Measured values taken from patent publication US20080312287A1, “Compound and Methods For the Treatment of Cancer and Malaria” (University of Washington, priority 2005, published 2008).
Some entries share one result that the patent states for a list of compounds.

Tests used:
P. falciparum 3D7 = test: P. falciparum ED50 determination, [3H]-hypoxanthine incorporation, strain 3D7; format: cell-based, Plasmodium falciparum; conditions: strain 3D7, bound given in text
Text: (§1) Plasmodium strains. The P. falciparum strains used in this study were 3D7 (Netherlands, sensitive) provided by Dr. Pradipsinh Rathod from the University of Washington and K1 (Thailand, ChQ-R, Pyr-R) obtained from the MR4Unit of the American Type Culture Collection (ATCC, Manassas, Va.).
(§2) P. falciparum culture. Strains of P. falciparum were sustained in vitro based on experimental techniques as described by Trager and Jensen.^26 Cultures were maintained in RPMI-1640 (Sigma, St. Louis, […].) with 2 mM L-glutamine, 25 mM HEPES, 33 mM NaHCO3, 20 μg/ml gentamicin sulfate and 20% (v/v) heat-inactivated human plasma type A+ (R^P-20P). Type A+ erythrocytes were obtained from lab donors, washed three times with RPMI, re-suspended in 50% RPMI, and stored at 4° C. Parasites were grown in 10 mL of a 2% hematocrit/RP-20P (v/v) in 50-mL flasks under a 5% CO2, 5% O2, and 90% N2 atmosphere.
(§3) P. falciparum ED50 determination. […] Cells were harvested onto filter mats by a Multiharvester (Skatron, Sunnyvale, Calif.) and the radioactivity incorporated into the parasites was counted on a β-scintillation counter. The background level detected with uninfected erythrocytes was subtracted from the data. […] ED50 values were determined by linear regression analysis of the plots of ^3H-hypoxanthine incorporation versus concentration of compound.

P. falciparum K1 = test: P. falciparum ED50 determination, [3H]-hypoxanthine incorporation, strain K1; format: cell-based, Plasmodium falciparum; conditions: strain K1, bound given in text
Text: as §1, §2, §3

Cn1cnc(S(=O)(=O)N(CCN(Cc2cncn2C)c2ccc(Br)cc2)Cc2ccccc2)c1 [Compound 8b, 1-Methyl-1H-imidazole-4-sulfonic acid benzyl-{2-[(4-bromo-phenyl)-(3-methyl-3H-imidazol-4-ylmethyl)-amino]-ethyl}-amide] was tested, and the “ED50 3D7” value (P. falciparum 3D7) was under 1 µM and the “ED50 K1” value (P. falciparum K1) was under 1 µM.
With Cn1cnc(S(=O)(=O)N(CCN(Cc2cncn2C)c2ccc(C#N)cc2)Cc2ccccc2)c1 [Compound 8d, 1-Methyl-1H-imidazole-4-sulfonic acid benzyl-{2-[(4-cyano-phenyl)-(3-methyl-3H-imidazol-4-ylmethyl)-amino]-ethyl}-amide] the “ED50 3D7” value (P. falciparum 3D7) was under 1 µM and the “ED50 K1” value (P. falciparum K1) was under 1 µM.
